From PMC10268282, “Activator-induced conformational changes regulate division-associated peptidoglycan amidases” (Proceedings of the National Academy of Sciences of the …, 2023)
No constants are given. Whether binding was seen depends on the method and setting. In cells and extracts the contact can be indirect.

Molecular target: T1, full-length EnvC protein (E. coli) (UniProt P37690)
T1 sequence: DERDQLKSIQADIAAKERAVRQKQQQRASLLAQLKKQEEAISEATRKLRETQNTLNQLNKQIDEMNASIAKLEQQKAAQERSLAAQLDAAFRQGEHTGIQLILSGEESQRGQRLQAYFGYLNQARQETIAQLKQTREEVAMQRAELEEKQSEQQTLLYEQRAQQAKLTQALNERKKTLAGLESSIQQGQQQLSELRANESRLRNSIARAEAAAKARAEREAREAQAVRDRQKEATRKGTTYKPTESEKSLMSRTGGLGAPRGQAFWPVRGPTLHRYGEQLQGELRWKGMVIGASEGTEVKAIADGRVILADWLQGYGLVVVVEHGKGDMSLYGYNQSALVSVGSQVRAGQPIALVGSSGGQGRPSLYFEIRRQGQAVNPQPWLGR
Assay: pull-down; copurification: AmiA or AmiA variants coexpressed alongside the His-tagged EnvC construct and copurified

binding: no binding
B1: AmiA (wild type), coexpressed for copurification (enzyme, UniProt P36548 35-289)
chain: KDELLKTSNGHSKPKAKKSGGKRVVVLDPGHGGIDTGAIGRNGSKEKHVVLAIAKNVRSILRNHGIDARLTRSGDTFIPLYDRVEIAHKHGADLFMSIHADGFTNPKAAGASVFALSNRGASSAMAKYLSERENRADEVAGKKATDKDHLLQQVLFDLVQTDTIKNSLTLGSHILKKIKPVHKLHSRNTEQAAFVVLKSPSVPSVLVETSFITNPEEERLLGTAAFRQKIATAIAEGVISYFHWFDNQKAHSKKR
